Results published in publication PMC3275627.
No constants are given. Whether binding was seen depends on the method and setting. In cells and extracts the contact can be indirect. A result given as binding can be weak or reduced; the word gives no strength. Where a sequence is shown, tags or fusion partners need not be part of it. Blank lines part the entries; values can stand above or below the binder they belong to.

The chains behind the UniProt entries cited, without tags or fusion partners. Where a name states a change or a piece, a line headed by the entry shows the natural chain unless it says otherwise.
UniProt Q10369: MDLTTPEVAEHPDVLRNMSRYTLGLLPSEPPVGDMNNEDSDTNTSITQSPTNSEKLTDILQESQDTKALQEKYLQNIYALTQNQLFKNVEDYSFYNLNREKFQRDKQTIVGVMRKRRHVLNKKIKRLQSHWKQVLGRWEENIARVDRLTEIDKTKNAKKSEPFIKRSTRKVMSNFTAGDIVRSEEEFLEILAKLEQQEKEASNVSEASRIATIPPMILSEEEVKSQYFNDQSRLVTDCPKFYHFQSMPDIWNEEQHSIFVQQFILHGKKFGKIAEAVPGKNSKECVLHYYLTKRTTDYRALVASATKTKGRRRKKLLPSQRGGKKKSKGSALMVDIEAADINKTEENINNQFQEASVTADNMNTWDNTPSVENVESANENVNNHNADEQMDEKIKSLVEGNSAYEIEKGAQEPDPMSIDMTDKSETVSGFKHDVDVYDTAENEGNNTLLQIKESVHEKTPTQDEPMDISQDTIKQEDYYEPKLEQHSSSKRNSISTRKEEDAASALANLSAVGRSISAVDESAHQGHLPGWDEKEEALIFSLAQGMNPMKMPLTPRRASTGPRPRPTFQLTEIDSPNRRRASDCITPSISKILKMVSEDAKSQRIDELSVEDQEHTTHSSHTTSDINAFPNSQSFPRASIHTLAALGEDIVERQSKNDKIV

Biological target: Snt1-Myc fusion protein (S. pombe) (UniProt Q10369)
Assay: co-IP; S. pombe cells expressing both tagged proteins, lysed under native conditions (1% IGEPAL CA630, 150 mM NaCl, 50 mM Tris-HCl pH 8.0); anti-Myc immunoprecipitation on Protein G Dynabeads, immunoblot with anti-HA (per results and legend)

- binding: binds
B1: Hif2-HA fusion protein (protein, UniProt O74845 1-564)
chain: MDTNQVNYIIWRYLKECGYSHTKFAFERETGIQNLDKQWGSTCQVGALVEILQKGLQYVELEKHYVDNHSSNEEASKTSIDGESLVNENPCKLPFYLTVPHICETTLTKADSTNGFCEHNNSNDHQLKILQDKGSGSPSSPVMPFKDKIEKRDIDITMADESNVEKDPARPIAVYNSSPVTEITEIKQVTFTGGEDIKSDFFKVIPTKHPVTCADWRPLLQENYHVYEFSIGMTNATLASVSICEEQNDFKAKTDYCLQSSFDNQDITGVAWNNSGSFLAYAFFSGVIEIYDSHGSQILSFHNNKGPVLSLKWSGTDTYLAAGSADGTITLFDQLKQTQYSIDTLASSVLDIEWISFDEFVTSDVEGSLRVYKVDGKAPVSTVSHAHDNSIVALRYNLRISLLLTASSDTTVKLWSRGDAGAFECLHVFSFSSPVNCIDWNLREGTPILAVASNSIVSMYNAISLQQLAVFMRHTAPVSALSFSHNGRYLATGDTSGGVCIWSCKTAKLFKELGSDNSELIAVTNVLPEEQVNFLRWSFDDKDLLIGKQKKEIICCCDFLHDSL

- binding: binds
B2: Set3-HA fusion protein (protein, UniProt Q10362 1-859)
chain: MWKIRCVCPFEDDDGFTIQCESCEVWQHAVCVNIDANNVPEKYFCEQCQPRPIDADKAHKIQLARLQREEEQSRILSRSRSSNNKRRTSFGKNGASPTHSASPRQGNNTGANGALFSQSTNSSNSGSYRNSVTGATLPNAHAPHSQNRRRRSNHLNNPPEAPITEASNEYVYSFHLEYVPLESNTFSASALEYSKNLDLKNLDESEVLMDGCQVVPISSSKFCCSRFGLVSTCEIPPNTPIMEVKGRVCTQNEYKSDPKNQYNILGAPKPHVFFDSNSQLVVDSRVAGSKARFARKGCQSNSVVSSVYMNGSNSVPRFILYSTTHIAPETEIIGDWTLDISHPFRQFAPGMSRPSFNMEELELLSEVLSTFLSFNECASQDKKNCVFSRVTKYIKAARRASTANRVSVAKDRLSLTPSSTPSTPSPAESLPQPSNPTSVYAKSLKEFWLDKYRLSILQKWPAVKSLPTESVGIDVVMEPKLQPSVKEKKPTKDLQSPLPSVEEDSSNRDKKTDIADLHTDSKVGIADVLSPISPDAALQSDGPLKKAKEPEESSITPTTPPSFNVGESLSRRSASPLQHPRTSPDMLDKTSPCKRGLGTITTVHKKHGSVDHLPSVKRRRSIANDFHGKPDYNKRSLSIERKPEAFKTKGDRPHKVHPSFHRNSDSKLKLEPSSKEKSGSMFFNTLRTVKDKSHVHDTQRSSDVNFSRQNGTRSHSPSVSPVGFSFDKSPVTTPPLPTAPAPVITSRHALVNNQFPTNNPNILDHKANNGDDISNALNTSRSENKPNSNLVQGSVVKPSNTSASALPTSAPKKLSLSEYRQRRQQNILHQQSKDNQAHGDTARPHTVPAATVSNPSFTR
